{"source": "patent US5916906A", "about": "“Compositions comprising nicotinylalanine and an inhibitor of glycine conjugation or vitamin B6” (priority 1997, dated 1999)", "origin": "cited, not measured here", "key": {"kynurenine hydroxylase": {"test_system": "kynurenine hydroxylase", "details": "cited from earlier work"}, "kynureninase": {"test_system": "kynureninase", "details": "cited from earlier work"}}, "note": "At least one structure is not confirmed: it was looked up by name or label, or the drawing left a doubt."}
{"smiles": "NC(CC(=O)c1cccnc1)C(=O)O", "note": "(racemic) [NAL, γ-(3-pyridyl)-γ-oxo-α-aminobutyrate]", "values": [{"measurement": "Inhibition of kynurenine hydroxylase (in words)", "setting": "kynurenine hydroxylase", "value": "inhibitor of both kynurenine hydroxylase and kynureninase"}, {"measurement": "Conversion as substrate of kynureninase (in words)", "setting": "kynureninase; Decker 1963", "value": "itself converted to nicotinamide"}, {"measurement": "Inhibition of kynureninase (in words)", "setting": "kynureninase", "value": "inhibitor of both kynurenine hydroxylase and kynureninase"}]}
